No constants are given. Whether binding was seen depends on the method and setting. Binding calls can cover weak binding; strength is not graded here.
Legend:
[1] = target: T1, BMP10 growth factor (GF)-domain from Pro:BMP10 made in HEK EBNA cells (human) (UniProt O95393); assay: crystal structure; prodomain-bound BMP10 (Pro:BMP10), crystal form 1 (mutant prodomain, 2.90 Å) and crystal form 2 (WT, 3.5 Å), C2221; both purified
T1 sequence: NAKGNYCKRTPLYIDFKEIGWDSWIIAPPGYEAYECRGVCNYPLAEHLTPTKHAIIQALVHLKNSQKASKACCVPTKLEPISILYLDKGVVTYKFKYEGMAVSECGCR

[2] = target: T2, Recombinant human BMP10 growth factor (GF)-domain (R&D Systems) (human) (UniProt O95393); assay: SPR; Biacore T200; BMP10 GF-domain amine-coupled to a CM5 chip (1300 RU); ALK1-Fc, BMPRII-Fc or monomeric BMPRII WT and mutant ECDs injected at 40 ul/min; 10 mM HEPES pH 7.4, 150 mM NaCl, 3.4 mM EDTA, 0.5 mg/ml BSA, 0.005% P20, 25 °C; 1:1 model, KD = kd/ka; both purified
T2 sequence: T1 sequence

## BMP10 prodomain with surface-entropy mutations (of the mutant Pro:BMP10, crystal form 1) (from UniProt O95393) (domain or fragment)
[1]
  binding: binds

## BMPRII ECD ΔGDP (from UniProt Q13873-1) (domain or fragment)
[2]
  binding: binds

From PMC9064986
